From article PMC5651819, “AtSPX1 affects the AtPHR1–DNA-binding equilibrium by binding monomeric AtPHR1 in solution” (Biochemical Journal, 2017)
The exact form of at least one protein or probe is not confirmed. A negative result means that nothing was seen under these conditions. At least one verdict rests on a figure or table, not on a statement of the authors. Weaker means in comparison with the reference protein, sequence or condition of that experiment.

By UniProt entry, the sequences of proteins in these tests, tags left out. Residues count along the entry.
UniProt Q94CL7, 208-362: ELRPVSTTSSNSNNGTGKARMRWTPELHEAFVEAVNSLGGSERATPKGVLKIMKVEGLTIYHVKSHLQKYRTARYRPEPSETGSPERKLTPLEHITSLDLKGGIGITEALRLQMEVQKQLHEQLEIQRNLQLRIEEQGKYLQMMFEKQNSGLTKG

Target: MBP-AtdPHR1 (Arabidopsis thaliana) (UniProt Q94CL7)
Assay: SPR
Settings: SPR (Biacore 3000, SA chip, ~500 RU DNA): 10 mM HEPES pH 7.5, 200 mM NaCl, 0.01% Surfactant P-20, 25 C, 40 ul/min, with or without Pi/InsP6, recombinant protein, residues 208-362, protein details: N-terminal MBP (pMAL-c2x)

Sequence | binding result (80 nM pre-bound, then GST-AtSPX1 with 100 uM InsP6, not displaced, label: 5'-biotin on strand 1) | binding result (80 nM, pre-mixed with GST-AtSPX1, 100 uM InsP6, signal not lowered, label: 5'-biotin on strand 1) | binding result (80 nM, pre-mixed with ~1000 nM GST-AtSPX1, 500 uM InsP6, smaller loss than 1x P1BS, label: 5'-biotin on strand 1) | binding result (80 nM, pre-mixed with ~1000 nM GST-AtSPX1, 5 mM Pi, smaller loss than 1x P1BS, label: 5'-biotin on strand 1) | binding result (0.31-80 nM protein, data not shown, label: biotin (implied by SA capture))
CAGAGAAAAAAGGATATTCTAATTAGAAACCTTAAGAATATTCTTTTTAATCCC (double strand) [2x P1BS probe] | binds | binds | binds more weakly | binds more weakly | 
CCGGCAGGAGACGTCTAGACGTCTCCGGCAGG (double strand) [met-box control probe] |  |  |  |  | no binding
